Library screen at single concentrations

By UniProt entry, the sequences of proteins in these tests, tags left out. Residues count along the entry.
UniProt P9WFT3, whole entry: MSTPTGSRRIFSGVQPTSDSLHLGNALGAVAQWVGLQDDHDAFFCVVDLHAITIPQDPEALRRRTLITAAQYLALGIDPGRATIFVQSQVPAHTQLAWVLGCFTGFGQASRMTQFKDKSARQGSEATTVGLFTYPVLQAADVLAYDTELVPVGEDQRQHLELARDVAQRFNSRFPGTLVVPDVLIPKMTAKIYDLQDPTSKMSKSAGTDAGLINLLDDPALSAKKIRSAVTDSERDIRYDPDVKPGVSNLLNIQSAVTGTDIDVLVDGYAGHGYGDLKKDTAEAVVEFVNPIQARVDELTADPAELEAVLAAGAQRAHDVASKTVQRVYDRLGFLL
UniProt P9WNZ1, whole entry: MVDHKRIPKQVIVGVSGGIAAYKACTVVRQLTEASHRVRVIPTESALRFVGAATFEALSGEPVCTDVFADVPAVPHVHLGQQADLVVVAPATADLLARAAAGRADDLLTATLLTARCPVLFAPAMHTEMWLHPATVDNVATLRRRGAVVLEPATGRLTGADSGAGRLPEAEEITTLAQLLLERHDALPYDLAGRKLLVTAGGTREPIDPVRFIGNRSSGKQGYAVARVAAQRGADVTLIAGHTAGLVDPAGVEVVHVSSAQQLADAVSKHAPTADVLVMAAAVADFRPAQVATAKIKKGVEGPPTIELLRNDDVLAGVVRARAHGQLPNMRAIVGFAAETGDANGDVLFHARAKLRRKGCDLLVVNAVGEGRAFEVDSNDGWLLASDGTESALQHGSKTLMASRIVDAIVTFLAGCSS
UniProt A4I591, 1-473: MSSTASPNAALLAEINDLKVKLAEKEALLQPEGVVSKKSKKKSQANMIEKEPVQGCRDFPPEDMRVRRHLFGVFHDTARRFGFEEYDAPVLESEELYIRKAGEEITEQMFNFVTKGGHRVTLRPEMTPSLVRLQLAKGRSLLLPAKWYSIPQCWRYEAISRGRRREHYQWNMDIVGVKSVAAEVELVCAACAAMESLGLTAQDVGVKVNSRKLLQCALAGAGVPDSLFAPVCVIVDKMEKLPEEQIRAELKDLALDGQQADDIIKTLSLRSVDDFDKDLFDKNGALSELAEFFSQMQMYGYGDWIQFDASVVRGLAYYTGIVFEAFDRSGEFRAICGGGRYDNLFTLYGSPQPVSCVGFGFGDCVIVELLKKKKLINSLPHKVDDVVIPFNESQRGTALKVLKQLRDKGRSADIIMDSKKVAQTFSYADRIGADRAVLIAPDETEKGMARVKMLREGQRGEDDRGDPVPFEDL
UniProt I6X8D2, whole entry: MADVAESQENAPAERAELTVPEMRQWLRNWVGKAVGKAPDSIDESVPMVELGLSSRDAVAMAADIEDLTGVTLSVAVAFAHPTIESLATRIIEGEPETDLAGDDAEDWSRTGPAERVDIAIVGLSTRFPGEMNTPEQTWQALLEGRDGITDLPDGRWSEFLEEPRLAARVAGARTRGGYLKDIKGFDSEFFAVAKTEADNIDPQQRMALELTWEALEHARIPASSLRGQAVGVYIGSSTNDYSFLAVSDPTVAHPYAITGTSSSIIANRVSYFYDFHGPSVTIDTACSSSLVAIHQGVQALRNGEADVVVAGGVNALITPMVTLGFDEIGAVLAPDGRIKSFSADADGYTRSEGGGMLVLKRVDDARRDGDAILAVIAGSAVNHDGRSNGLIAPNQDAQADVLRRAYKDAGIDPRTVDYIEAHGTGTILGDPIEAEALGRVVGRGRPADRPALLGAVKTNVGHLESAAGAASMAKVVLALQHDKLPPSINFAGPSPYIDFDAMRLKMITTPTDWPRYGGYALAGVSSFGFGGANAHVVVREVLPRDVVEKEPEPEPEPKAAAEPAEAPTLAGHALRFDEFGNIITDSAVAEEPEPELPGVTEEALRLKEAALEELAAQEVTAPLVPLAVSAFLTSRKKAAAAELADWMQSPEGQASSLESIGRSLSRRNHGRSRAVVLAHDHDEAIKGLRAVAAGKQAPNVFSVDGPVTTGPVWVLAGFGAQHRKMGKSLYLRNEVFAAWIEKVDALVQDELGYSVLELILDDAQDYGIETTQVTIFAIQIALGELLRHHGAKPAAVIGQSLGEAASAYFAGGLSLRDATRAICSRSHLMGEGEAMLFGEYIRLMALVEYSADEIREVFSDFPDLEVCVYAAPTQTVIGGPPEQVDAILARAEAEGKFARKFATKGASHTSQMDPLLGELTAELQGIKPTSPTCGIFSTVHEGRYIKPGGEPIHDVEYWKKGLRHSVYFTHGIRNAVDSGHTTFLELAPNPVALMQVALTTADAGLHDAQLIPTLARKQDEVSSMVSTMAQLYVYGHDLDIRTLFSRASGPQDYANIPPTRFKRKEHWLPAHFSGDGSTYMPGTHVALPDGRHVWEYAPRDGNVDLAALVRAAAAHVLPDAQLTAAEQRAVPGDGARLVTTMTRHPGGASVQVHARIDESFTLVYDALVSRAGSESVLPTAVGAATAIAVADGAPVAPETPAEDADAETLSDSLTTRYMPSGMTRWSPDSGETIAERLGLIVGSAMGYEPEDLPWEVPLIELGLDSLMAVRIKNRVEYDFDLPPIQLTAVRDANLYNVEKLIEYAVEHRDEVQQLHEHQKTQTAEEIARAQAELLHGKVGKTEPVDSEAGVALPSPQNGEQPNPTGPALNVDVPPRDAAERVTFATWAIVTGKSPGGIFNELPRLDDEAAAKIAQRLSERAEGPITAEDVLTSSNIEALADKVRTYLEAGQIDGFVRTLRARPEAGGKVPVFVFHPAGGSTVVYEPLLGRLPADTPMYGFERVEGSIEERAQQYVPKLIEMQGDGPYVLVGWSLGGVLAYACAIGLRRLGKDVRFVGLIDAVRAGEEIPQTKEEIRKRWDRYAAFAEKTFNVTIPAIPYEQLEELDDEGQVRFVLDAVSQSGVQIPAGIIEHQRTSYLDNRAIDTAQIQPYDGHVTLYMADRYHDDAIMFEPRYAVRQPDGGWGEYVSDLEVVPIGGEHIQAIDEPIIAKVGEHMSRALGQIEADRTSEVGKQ

From ChEMBL document CHEMBL3988442, “University of Dundee, Small-Polar-MMV Screening Library” (2021).

The filed quantity is “Percent Effect” (%).
How 0% and 100% were set is not recorded. Most values in the screen are low, and negative values occur.
This is an unselected part of the compounds tested.
A dash means the value is not listed here; it may have been measured.

A: 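Tryptophan-tRNA ligase, Mycobacterium tuberculosis (UniProt P9WFT3). Enzyme assay of tryptophanyl-tRNA synthetase; the read-out is not stated. Tested at 10 µM. Direction is not recorded; retested compounds ran higher, which suggests that high means inhibition. Size under these conditions: about 65,000 compounds, about 64 of them at 50% or above in at least one test.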
B: 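Coenzyme A biosynthesis protein CoaBC, Mycobacterium tuberculosis (UniProt P9WNZ1). Enzyme assay of CoaBC with a phosphate dye (Biomol Green) read at 650 nm. Tested at 30 µM. Direction is inferred from only a few compounds that gave an IC50; most scored high, so higher reads as stronger inhibition. Most strong results did not repeat in a second test. Size under these conditions: about 67,000 compounds, about 40 of them at 50% or above in at least one test.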
C: 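Histidine-tRNA ligase, Leishmania infantum (UniProt A4I591). Enzyme assay of histidyl-tRNA synthetase; the read-out is not stated. Compounds at 30 µM. Higher reads as stronger inhibition (inferred: compounds with an IC50 in retests scored well above the rest). The assay is labelled LdHisRS but filed under L. infantum. About 69,000 compounds were tested under these conditions; 0.6% (about 410) showed 50% or more at least once.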
D: 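Polyketide synthase Pks13, Mycobacterium tuberculosis (UniProt I6X8D2). Enzyme assay of the thioesterase domain of polyketide synthase 13; the read-out is not stated. Compounds at 30 µM. Higher reads as stronger inhibition (inferred from which compounds were picked for retests). About 67,000 compounds were tested under these conditions; 0.46% (about 300) showed 50% or more at least once.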

SMILES	A	B	C	D
O=S(=O)(c1c(N2CCCC2)ccc2nonc12)N1CCCC1	-4.821	0.3632	5.435	32.36
Cc1cc(C)n(CC(=O)N2CCC(c3nc(C(C)C)no3)CC2)n1	-0.3886	-2.54	13.79	-22.1
COc1cc(C(=O)N2CCC3(CC2)Nc2ccccc2NC3=O)ccn1	-1.667	-0.1206	7.2	-3.319
CN1CCOC(CNCC(=O)NCCCc2ccccc2)C1 (stereo not drawn)	0.7157	5.223	14.51	-32.94
O=C(O)Cn1ccc(=O)c2cc(Cl)ccc21	3.301	1.205	16.48	6.544
COC(=O)c1ccc(F)c(S(=O)(=O)Nc2ccc(C(N)=O)cc2)c1	-1.456	2.552	5	-
CC(C)C(O)C(=O)N1CCC2(CC1)c1nc[nH]c1CCN2S(C)(=O)=O (stereo not drawn)	-2.424	2.788	9.677	-0.4539
CN(CCc1ccncc1)C(=O)c1sccc1OC(F)F	-3.549	3.614	7.463	-12.26
COc1ccc(-c2ccc(C(=O)N3CCC[C@@H]3CO)o2)cc1	-2.196	7.536	9.836	3.597
N#CC1COCCN1S(=O)(=O)c1ccc2c(c1)CCC2 (stereo not drawn)	-3.685	3.968	6.25	2.91
CCNC(=O)CN1CCCC(c2ccc(C(=O)O)cc2)C1 (stereo not drawn)	-4.325	-2.538	-5.882	-24.36
CN(C)C(=O)CN1CCCC(Cc2ccc(N3CCCC3)nn2)C1 (stereo not drawn)	3.072	5.839	17.89	-9.991
COc1cc(NC(=O)NC2CC2)ccc1N1CCOC1=O	-3.385	-16.12	2.667	-42.52
CCOCC(=O)NCCc1ccc(I)s1	8.838	-2.419	5.263	-6.867
O=C(NCc1cccs1)[C@@H]1CC[C@@H]2[C@@H](CCN2c2ncccn2)O1	3.32	5.514	17.95	5.644
CC(C)COC(C)C(=O)NCc1ccc(F)cc1 (stereo not drawn)	-0.5016	5.483	13.27	-9.041
CCC(C)(C)C1CCCN1C(=O)c1coc(S(=O)(=O)NC)c1 (stereo not drawn)	9.049	-1.935	-40.79	25.58
O=C(O)C1(Oc2ccc3c(c2)OCO3)CCN(C2CCOCC2)CC1	2.783	2.41	9.89	-6.266
CN1CCNCC(Cc2cnc3ccccc3c2)C1 (stereo not drawn)	-7.67	-8.712	2.837	-1.077
CCN1CCN(C2CCN(Cc3nc(C4CC4)no3)CC2)C1=O	-2.521	0.7874	6.78	-13.66
COc1ccc(Cl)cc1NC(=O)CCNc1ccc(C#N)cn1	2.999	8.46	15.62	-
COc1ccc(CCNC(=O)C(C)Nc2cc(C)ccc2C)cc1 (stereo not drawn)	-2.849	1.946	17.12	8.553
O=C1CCC(C(=O)NCCOc2ccccc2-c2ccccc2)CN1 (stereo not drawn)	-1.144	-0.7937	4.464	0.9011
Cc1cnc(-c2nc(C3CCCN(Cc4ccccc4C)C3)no2)cn1 (stereo not drawn)	0.7812	0.2392	10.07	0.4488
COCCn1ccc(=O)c(OCC(=O)Nc2cccc(Cl)c2)c1C	-2.799	2.3	7.609	-2.06
Cn1nc(COc2cccnc2)c2c1CCN(c1cnccn1)C2	4.795	7.712	18.05	-6.748
CN1CCc2c(c(COc3cncnc3)nn2CC2CC2)C1	4.863	2.326	12.28	-37.76
O=C1N(c2cncnc2)CCC12CCCN(Cc1cccnc1)C2 (stereo not drawn)	0.2292	7.099	6.422	-11.6
O=C1CCC(c2nc(C3CCNCC3)no2)N1 (stereo not drawn)	-3.394	11.64	5.369	-25
O=C(NCCCN1CCc2ccccc2C1)c1ccccc1Br	0.05959	4.178	13.79	-11.66
CCCn1[nH]cc/c1=N\C(=O)CN1CCc2cnc(C(C)C)nc2C1	3.135	3.133	22.12	-18.99
Cc1nc(CSc2nc(=O)ccn2C(C)C)cs1	2.179	1.229	0	-5.34
CNC(=O)COC1COC2(CCN(c3ccc(C#N)cc3)CC2)C1 (stereo not drawn)	-0.5761	1.523	2.941	-6.428
O=C(NC[C@@H]1CCCO1)c1cccnc1N1CCCC1c1ccccc1 (stereo partly drawn)	-	2.913	17.82	21.52
O=C(NCCc1coc(-c2ccccc2)n1)NC1CC1	15.2	1.828	12.07	-19.79
O=C(COCc1ccccc1Cl)N1CCN(c2ncccn2)CC1	3.609	1.556	-2.703	0.9575
Cc1cccc(CN2CCC(Cc3ccccc3F)CC2)n1	-0.5948	-3.636	16.44	-4.884
CCC(O)CN1CCN(C(=O)c2sccc2C(C)C)CC1 (stereo not drawn)	-1.647	-3.217	3.419	-16.51
O=C(c1ccoc1)N1CC[C@@H]2O[C@@H](COCc3ccncc3)CC[C@@H]21	-1.146	4.26	17.43	-10.6
CC(C)c1nnc2n1CC(CNC/C=C/c1ccccc1)CC2 (stereo not drawn)	1.375	-11.2	19.1	-14.5
Cc1cnc(C)c(N2CCN(CCCc3[nH]nc(C)c3C)CC2)n1	0.1679	5.832	20	-24.24
O=C(C1SCCc2sccc21)N1CCN(CCO)CC1 (stereo not drawn)	1.126	8.489	17.31	-17
COC1COC2(CCN(Cc3cccc(Cl)c3)CC2)C1 (stereo not drawn)	0.1383	3.759	2.564	-8.036
CNC(=O)c1cccc(Nc2cnn(C)c2)c1	-4.329	-7.495	10	-35.96
CCC1(CC)CC(=O)N(CC(O)c2cccc(F)c2)C1=O (stereo not drawn)	-3.92	-15.05	11.67	-25.98
Cc1cnn(C2CCCN(C(=O)c3cc(-c4cccs4)n[nH]3)C2)c1 (stereo not drawn)	1.961	2.92	17.78	-5.408
Cc1c(F)cc(C(=O)O)cc1S(=O)(=O)Nc1ccc(F)c(C#N)c1	-8.755	-2.609	0	-4.45

4 of the entries, repeated:

Cc1nc(CSc2nc(=O)ccn2C(C)C)cs1 read A: 2.179%; B: 1.229%; C: 0%; D: -5.34%.
CN1CCOC(CNCC(=O)NCCCc2ccccc2)C1 (stereo not drawn) read A: 0.7157%; B: 5.223%; C: 14.51%; D: -32.94%.
CCNC(=O)CN1CCCC(c2ccc(C(=O)O)cc2)C1 (stereo not drawn) read A: -4.325%; B: -2.538%; C: -5.882%; D: -24.36%.
O=C(NCCc1coc(-c2ccccc2)n1)NC1CC1 read A: 15.2%; B: 1.828%; C: 12.07%; D: -19.79%.